Reference: publication PMC13211308, “Chemical genetics reveals Leishmania KKT2 and CRK9 kinase activity is required for cell cycle progression” (PLOS Pathogens, 2026)

Sequences of proteins named here, by UniProt entry; tags and fusion partners are left off. A change or cut given only in a name is not applied to a line headed by its entry.
UniProt E9ATZ8: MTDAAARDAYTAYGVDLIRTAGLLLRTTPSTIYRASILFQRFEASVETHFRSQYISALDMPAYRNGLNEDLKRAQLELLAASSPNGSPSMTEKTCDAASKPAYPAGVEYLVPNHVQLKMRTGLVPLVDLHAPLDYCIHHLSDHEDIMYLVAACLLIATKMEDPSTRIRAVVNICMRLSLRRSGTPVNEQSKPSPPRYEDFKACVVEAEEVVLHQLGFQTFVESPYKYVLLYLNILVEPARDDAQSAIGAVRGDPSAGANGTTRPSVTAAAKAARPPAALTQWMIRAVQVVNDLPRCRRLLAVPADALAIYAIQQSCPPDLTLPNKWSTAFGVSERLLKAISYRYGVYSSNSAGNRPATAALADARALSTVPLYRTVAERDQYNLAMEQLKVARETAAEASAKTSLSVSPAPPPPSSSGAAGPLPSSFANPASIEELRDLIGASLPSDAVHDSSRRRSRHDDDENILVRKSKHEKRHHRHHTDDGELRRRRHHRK

Target: 3xMyc::BirA*::CRK9 (L. mexicana cyclin-dependent kinase CRK9, LmxM.27.1940) (Leishmania mexicana) (UniProt E9AZ98)
Assay: proximity labelling; cross-linking BioID (XL-BioID): 3xMyc::BirA*::CRK9 in L. mexicana promastigotes, 150 µM d-biotin 18 h at 25 °C, 1 mM DSP crosslinker 10 min, RIPA lysis, streptavidin beads, LC-MS/MS (DIA); enrichment against the spatial reference 3xMyc::BirA*::BDF7, 1% FDR

- binding: binds
Substance: cyclin CYC12 (LmxM.36.5640) (from UniProt E9ATZ8)

These are yes or no findings as the source states them, for the method shown. Binding seen in cells or lysates may run through a third protein. These calls come from enrichment with a bait or labelling near it, and not all partners need be listed.
